# Assay results taken from the supplement of paper PMC11732987, “Enantioselective OTUD7B fragment discovery through chemoproteomics screening and high-throughput optimisation” (Communications Chemistry, 2025).
# Chains of the proteins cited; added tags and fusions are not shown. Lines headed by an entry give the natural chain unless they say otherwise; changes in a name come on top. Residues count along the entry.
# UniProt Q96KB5, 102-121: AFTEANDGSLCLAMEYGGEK
# UniProt Q15154, 886-914: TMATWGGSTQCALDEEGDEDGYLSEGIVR
# UniProt P55809: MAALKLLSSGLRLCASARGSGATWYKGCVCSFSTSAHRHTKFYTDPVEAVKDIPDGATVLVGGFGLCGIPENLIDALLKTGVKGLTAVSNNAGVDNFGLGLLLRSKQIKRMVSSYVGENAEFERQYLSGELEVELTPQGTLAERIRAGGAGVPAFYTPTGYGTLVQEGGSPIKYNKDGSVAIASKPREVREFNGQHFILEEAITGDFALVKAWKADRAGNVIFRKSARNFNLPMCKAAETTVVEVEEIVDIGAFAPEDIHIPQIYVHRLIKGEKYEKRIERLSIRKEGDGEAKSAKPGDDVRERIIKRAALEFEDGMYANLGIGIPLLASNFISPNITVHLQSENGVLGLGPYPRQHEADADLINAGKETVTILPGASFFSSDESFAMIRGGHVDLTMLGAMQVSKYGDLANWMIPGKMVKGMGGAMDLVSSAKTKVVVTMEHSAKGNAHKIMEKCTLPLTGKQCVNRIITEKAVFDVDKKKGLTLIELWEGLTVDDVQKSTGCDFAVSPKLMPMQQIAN
# UniProt Q16875: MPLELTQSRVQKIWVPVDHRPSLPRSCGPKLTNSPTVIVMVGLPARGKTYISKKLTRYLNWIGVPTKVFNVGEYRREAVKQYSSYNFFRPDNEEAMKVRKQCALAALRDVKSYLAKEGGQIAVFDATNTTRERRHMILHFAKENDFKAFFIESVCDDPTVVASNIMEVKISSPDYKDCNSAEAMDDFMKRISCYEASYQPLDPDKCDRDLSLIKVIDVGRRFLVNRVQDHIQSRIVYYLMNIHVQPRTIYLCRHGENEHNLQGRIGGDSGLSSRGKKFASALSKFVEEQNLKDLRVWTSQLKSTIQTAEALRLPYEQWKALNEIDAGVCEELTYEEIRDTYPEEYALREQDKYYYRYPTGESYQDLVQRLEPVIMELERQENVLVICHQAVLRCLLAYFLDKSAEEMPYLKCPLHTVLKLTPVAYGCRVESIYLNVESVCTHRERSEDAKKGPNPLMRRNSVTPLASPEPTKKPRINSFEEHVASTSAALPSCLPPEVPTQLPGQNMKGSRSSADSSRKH
# UniProt Q8WUM4, 518-541: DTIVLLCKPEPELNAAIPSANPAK
# UniProt Q7L3T8, 151-170: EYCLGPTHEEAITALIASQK
# UniProt Q29RF7: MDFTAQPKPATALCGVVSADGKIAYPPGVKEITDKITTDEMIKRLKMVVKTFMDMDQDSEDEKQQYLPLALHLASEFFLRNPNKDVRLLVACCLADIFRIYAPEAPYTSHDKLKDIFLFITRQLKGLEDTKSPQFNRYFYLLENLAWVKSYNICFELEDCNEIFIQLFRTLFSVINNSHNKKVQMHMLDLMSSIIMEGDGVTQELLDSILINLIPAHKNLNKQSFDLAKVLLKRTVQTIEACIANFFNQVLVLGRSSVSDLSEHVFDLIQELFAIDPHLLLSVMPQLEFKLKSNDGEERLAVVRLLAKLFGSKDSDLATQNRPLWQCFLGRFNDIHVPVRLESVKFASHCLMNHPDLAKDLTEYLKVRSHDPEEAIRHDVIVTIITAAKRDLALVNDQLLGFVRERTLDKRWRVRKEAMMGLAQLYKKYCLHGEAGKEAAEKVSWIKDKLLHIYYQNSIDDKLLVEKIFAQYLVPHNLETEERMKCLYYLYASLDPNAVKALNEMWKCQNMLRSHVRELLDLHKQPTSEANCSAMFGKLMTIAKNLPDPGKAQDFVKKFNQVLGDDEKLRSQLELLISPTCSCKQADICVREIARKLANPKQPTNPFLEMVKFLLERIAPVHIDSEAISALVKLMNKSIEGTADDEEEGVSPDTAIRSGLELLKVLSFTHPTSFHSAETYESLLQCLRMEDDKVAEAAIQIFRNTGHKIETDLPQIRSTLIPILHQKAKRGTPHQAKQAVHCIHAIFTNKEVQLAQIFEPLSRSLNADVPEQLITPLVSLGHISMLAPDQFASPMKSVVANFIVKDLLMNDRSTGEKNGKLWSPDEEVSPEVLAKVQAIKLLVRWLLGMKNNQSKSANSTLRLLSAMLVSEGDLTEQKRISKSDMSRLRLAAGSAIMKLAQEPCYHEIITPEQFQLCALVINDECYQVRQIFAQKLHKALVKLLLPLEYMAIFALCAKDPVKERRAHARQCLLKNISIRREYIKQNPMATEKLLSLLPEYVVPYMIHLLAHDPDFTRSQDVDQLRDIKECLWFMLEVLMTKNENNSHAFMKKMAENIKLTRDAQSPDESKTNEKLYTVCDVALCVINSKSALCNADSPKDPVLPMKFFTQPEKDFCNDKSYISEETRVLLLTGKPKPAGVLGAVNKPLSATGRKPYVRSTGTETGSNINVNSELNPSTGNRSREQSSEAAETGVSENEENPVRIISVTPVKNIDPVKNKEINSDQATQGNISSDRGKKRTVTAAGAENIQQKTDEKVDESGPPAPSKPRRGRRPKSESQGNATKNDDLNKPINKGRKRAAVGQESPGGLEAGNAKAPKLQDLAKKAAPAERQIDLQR
# UniProt O95453: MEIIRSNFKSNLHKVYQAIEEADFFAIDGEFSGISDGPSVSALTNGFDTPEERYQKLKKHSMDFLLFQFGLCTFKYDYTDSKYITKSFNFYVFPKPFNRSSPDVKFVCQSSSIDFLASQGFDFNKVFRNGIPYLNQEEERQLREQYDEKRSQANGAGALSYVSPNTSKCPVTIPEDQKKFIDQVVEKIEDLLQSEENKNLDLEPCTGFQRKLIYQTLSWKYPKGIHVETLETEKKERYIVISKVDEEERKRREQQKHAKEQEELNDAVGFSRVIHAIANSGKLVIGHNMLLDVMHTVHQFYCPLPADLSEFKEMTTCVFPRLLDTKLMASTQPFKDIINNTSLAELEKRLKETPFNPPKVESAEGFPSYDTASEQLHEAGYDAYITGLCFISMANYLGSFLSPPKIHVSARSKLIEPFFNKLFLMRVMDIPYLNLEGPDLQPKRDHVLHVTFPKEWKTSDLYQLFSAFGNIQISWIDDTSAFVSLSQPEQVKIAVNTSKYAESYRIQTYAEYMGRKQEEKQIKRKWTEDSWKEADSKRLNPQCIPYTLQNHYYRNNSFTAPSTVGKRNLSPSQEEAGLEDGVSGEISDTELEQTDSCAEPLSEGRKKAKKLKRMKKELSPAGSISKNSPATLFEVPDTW
# UniProt P05166: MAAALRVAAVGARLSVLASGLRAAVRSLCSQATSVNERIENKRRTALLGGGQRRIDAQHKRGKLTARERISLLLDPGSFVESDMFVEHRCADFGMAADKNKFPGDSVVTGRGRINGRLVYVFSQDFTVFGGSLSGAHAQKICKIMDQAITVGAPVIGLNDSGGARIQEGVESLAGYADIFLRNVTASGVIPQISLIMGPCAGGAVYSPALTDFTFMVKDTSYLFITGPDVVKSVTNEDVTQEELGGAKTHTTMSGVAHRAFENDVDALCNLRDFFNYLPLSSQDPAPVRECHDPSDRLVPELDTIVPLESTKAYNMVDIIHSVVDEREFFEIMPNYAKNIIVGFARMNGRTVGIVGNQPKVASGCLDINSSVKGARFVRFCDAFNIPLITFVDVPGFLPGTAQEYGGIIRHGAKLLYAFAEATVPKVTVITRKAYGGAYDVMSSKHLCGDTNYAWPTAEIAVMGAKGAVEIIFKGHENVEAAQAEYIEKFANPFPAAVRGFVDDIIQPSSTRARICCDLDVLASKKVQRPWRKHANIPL
# UniProt P12955, 451-470: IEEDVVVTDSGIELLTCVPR
# UniProt Q14690: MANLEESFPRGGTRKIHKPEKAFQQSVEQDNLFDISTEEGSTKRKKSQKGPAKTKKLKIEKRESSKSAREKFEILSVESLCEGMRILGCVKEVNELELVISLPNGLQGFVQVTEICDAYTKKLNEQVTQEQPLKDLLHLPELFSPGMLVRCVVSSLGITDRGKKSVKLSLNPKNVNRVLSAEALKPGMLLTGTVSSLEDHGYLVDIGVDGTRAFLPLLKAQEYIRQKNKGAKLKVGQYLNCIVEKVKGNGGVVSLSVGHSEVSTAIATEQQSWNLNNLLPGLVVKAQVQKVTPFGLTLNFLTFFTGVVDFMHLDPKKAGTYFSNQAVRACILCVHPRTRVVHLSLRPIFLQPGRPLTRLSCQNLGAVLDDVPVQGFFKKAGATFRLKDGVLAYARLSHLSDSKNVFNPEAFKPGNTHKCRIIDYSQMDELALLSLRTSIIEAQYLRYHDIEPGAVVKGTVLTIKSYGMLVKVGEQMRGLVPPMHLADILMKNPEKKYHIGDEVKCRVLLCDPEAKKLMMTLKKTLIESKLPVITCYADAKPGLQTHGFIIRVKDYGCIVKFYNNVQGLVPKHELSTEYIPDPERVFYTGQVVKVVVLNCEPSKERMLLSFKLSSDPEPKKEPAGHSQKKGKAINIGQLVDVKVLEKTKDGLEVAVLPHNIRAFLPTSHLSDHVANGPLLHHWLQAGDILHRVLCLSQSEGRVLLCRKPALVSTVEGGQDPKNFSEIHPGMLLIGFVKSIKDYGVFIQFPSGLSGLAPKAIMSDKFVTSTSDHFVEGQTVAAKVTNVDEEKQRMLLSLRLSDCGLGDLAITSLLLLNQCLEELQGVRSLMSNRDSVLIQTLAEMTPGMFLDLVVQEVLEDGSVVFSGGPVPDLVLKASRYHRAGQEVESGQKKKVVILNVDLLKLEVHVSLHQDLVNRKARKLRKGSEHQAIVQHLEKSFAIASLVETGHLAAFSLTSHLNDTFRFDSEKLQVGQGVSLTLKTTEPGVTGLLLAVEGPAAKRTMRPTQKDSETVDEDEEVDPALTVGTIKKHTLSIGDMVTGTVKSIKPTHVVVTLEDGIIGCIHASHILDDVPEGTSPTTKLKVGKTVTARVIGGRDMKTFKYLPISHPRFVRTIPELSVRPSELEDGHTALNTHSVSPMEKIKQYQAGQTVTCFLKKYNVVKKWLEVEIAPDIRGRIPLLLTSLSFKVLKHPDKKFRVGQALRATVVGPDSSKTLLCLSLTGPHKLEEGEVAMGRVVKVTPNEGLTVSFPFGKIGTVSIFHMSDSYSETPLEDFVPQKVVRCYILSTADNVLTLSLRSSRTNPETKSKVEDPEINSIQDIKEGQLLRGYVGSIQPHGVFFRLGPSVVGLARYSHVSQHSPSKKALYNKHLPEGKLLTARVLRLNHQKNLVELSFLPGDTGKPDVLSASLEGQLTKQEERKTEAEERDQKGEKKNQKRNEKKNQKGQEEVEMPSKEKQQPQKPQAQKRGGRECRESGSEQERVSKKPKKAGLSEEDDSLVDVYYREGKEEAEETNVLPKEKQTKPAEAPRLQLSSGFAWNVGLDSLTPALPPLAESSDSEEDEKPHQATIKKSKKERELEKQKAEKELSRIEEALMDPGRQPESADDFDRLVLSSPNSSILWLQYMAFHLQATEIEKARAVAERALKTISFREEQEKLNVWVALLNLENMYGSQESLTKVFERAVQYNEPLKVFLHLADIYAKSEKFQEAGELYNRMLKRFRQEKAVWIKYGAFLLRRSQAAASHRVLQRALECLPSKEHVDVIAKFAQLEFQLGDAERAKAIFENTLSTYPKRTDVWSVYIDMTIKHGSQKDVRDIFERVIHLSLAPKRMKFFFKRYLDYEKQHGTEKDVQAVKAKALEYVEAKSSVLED
# UniProt Q8WZ82, 37-58: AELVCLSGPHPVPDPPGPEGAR
# UniProt Q6P996, 438-458: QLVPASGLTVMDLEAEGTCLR
# UniProt Q53EL6: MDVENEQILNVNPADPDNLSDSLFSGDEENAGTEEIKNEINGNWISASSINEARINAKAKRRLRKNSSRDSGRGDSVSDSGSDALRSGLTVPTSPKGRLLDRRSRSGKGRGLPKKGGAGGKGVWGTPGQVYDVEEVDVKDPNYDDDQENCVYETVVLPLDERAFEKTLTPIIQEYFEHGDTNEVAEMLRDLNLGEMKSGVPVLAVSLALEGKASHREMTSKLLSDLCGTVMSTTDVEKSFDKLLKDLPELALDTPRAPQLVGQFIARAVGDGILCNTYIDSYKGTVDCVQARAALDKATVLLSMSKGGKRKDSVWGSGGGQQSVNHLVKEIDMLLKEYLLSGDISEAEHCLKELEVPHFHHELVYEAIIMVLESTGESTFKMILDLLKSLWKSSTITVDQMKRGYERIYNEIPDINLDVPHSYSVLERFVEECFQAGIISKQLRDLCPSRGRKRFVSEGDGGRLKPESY
# UniProt P11177, whole entry, looked up: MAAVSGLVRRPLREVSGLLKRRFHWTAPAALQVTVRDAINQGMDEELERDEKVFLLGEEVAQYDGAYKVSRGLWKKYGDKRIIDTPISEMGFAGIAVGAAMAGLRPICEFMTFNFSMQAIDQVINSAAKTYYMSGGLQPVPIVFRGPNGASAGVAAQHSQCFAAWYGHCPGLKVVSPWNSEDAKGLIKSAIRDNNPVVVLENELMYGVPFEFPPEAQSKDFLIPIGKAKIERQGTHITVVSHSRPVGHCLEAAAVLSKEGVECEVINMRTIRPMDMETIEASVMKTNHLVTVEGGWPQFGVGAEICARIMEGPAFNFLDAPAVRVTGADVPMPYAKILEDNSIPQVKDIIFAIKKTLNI
# UniProt Q96HC4, 206-225: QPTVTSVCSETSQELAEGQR
# UniProt Q8WUB8, 56-78: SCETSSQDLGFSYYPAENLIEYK
# UniProt P35080: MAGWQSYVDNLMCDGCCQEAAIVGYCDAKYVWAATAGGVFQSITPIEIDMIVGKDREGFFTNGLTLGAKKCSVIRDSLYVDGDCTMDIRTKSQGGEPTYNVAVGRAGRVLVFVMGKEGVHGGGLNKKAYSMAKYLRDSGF
# The other results are listed elsewhere or left out. The data scatter; read single values as rough.
# What was measured:
# [1] = compound: ClCC(=O)N[C@@H]1CCCc2ccccc12; test: log2 mean competition ratio of IA-DTB cysteine labelling (DMSO/compound) (log2 ratio); higher = stronger cysteine engagement by compound; settings: treatment time: 4 h, cell line lysate: HEK293T
# Experimental: (§1)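 IA-DTB competitive cysteine chemoproteomics in HEK293T RIPA lysate. Lysates were treated with compound 29 or 30 at 50 or 200 µM for 4 h, then IA-DTB (500 µM, 1 h), trypsin-digested, NeutrAvidin-enriched and analysed by diaPASEF. Competition ratio = intensity DMSO / intensity compound (n=4 treated, n=64 DMSO); binding: mean log2 CR ≥ 1 and p ≤ 0.05 plus QC filters. Target is the cysteine site.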
# [2] = compound: ClCC(=O)N[C@H]1CCCc2ccccc12; test: as above; settings: treatment time: 4 h, cell line lysate: HEK293T
# Experimental: as §1
Target,log2 mean competition ratio ([1]; 50 µM),log2 mean competition ratio ([1]; 200 µM),log2 mean competition ratio ([2]; 50 µM),log2 mean competition ratio ([2]; 200 µM)
PCK2 C325 (UniProt Q16822),-0.0209,0.224,0.336,0.118
PBK C112 (UniProt Q96KB5),0.112,-0.0163,0.51,-0.183
PDS5B C579 (UniProt Q9NTI5),-0.196,0.584,0.0343,0.544
PACS2 C831 (UniProt Q86VP3),-0.252,0.0824,-0.218,0.376
PCM1 C1585 (UniProt Q15154),-0.155,0.0855,0.227,0.173
PELO C258 (UniProt Q9BRX2),-0.0431,-0.101,-0.112,-0.0552
PAK4 C462 (UniProt O96013),0.312,0.11,0.255,0.202
PBK C70 (UniProt Q96KB5),0.171,0.065,-0.0232,0.0655
PGM2L1 C125 (UniProt Q6PCE3),0.13,0.0588,0.179,0.0794
OXCT1 C504 (UniProt P55809),-0.0882,0.0317,-0.221,0.178
PFKFB3 C178 (UniProt Q16875),0.194,-0.879,,-0.0725
PFKFB3 C440 (UniProt Q16875),0.205,0.177,0.3,-0.0325
PCBP2 C109,-0.101,-0.0244,-0.0405,0.0901
PGP C217 (UniProt A6NDG6),0.317,0.21,0.889,0.147
PDCD6IP C524 (UniProt Q8WUM4),-0.504,-0.369,0.121,-0.442
PEX7 C5 (UniProt O00628),0.133,-0.322,0.177,0.039
PDK1 C421,0.0274,0.099,0.284,0.164
PARS2 C153 (UniProt Q7L3T8),0.0185,-0.0257,-0.409,-0.222
PCID2 C25 (UniProt Q5JVF3),-0.0392,-0.0512,-0.498,0.00864
PAN2 C826 (UniProt Q504Q3),-0.171,-0.741,,-0.307
PDS5A C1093 (UniProt Q29RF7),0.0599,0.192,-0.306,0.105
PDSS2 C365 (UniProt Q86YH6),0.116,0.148,,0.312
PAXIP1 C997 (UniProt Q6ZW49),-0.0555,0.125,0.202,0.125
PARN C205 (UniProt O95453),-0.148,-0.419,-0.182,-0.379
PEAK1 C791 (UniProt Q9H792),-0.195,-0.188,-0.254,-0.129

Target,log2 mean competition ratio ([1]; 50 µM),log2 mean competition ratio ([1]; 200 µM),log2 mean competition ratio ([2]; 50 µM),log2 mean competition ratio ([2]; 200 µM)
PCCB C269 (UniProt P05166),0.162,0.18,0.315,-0.183
PEPD C467 (UniProt P12955),-0.198,0.0696,-0.105,-0.074
PDPK1;PDPK2P C181;(C154),0.00173,0.0727,0.269,0.0379
PACSIN3 C231 (UniProt Q9UKS6),0.204,-0.448,-0.103,-0.21
PCNT C1225 (UniProt O95613),-0.0326,0.172,-0.0818,-0.112
PDE3B C35 (UniProt Q13370),0.0522,-0.0813,,-0.051
PDCD11 C1754 (UniProt Q14690),-0.124,0.192,-0.673,-0.048
PALM3 C231 (UniProt A6NDB9),0.00107,-0.224,-0.052,-0.414
PCNX1 C142 (UniProt Q96RV3),-0.226,0.294,0.0449,0.059
PAN2 C263 (UniProt Q504Q3),-0.286,-0.0853,-0.0832,0.113
PCBP1 C158 (UniProt Q15365),-0.199,-0.186,-0.283,-0.163
PDHA1 C261 (UniProt P08559),0.0663,-0.164,-0.332,-0.0952
PDK2 C45 (UniProt Q15119),-0.348,0.117,0.176,0.473
PAAT C353 (UniProt Q9H8K7),0.101,-0.142,-0.121,-0.0553
OVCA2 C41 (UniProt Q8WZ82),-0.342,0.258,-0.827,-0.0551
P3H4 C101 (UniProt Q92791),-0.0497,-0.0788,-0.156,0.102
PDXDC1 C456 (UniProt Q6P996),-0.0163,0.039,0.141,0.263
PGLS C78 (UniProt O95336),-0.222,-0.556,-0.351,-0.318
PGD C402,-0.129,-0.17,-0.325,-0.0309
PACS1 C116 (UniProt Q6VY07),0.0549,-0.0869,0.0936,-0.0449
PDCD11 C694 (UniProt Q14690),-0.177,-0.238,-0.296,-0.184
PGK1 C50 (UniProt P00558),-0.00476,0.131,0.669,0.289
PDPK1;PDPK2P C327;(C300),0.151,-0.046,0.0538,-0.141
PARN C317 (UniProt O95453),0.208,-0.19,0.33,0.0559
PDE4DIP C603,-0.201,0.119,-0.401,0.101

Target,log2 mean competition ratio ([1]; 50 µM),log2 mean competition ratio ([1]; 200 µM),log2 mean competition ratio ([2]; 50 µM),log2 mean competition ratio ([2]; 200 µM)
PCMT1 C102 (UniProt P22061),-0.000244,-0.114,0.163,-0.0828
PEPD C58 (UniProt P12955),0.118,-0.0693,-0.234,-0.11
PDCD4 C275 (UniProt Q53EL6),0.124,0.307,0.288,0.0311
PCNT C2059 (UniProt O95613),0.12,-0.0419,-0.126,0.0619
PDE1B C282,-0.0284,0.0847,-0.131,-0.0092
PBLD C153 (UniProt P30039),-0.426,-0.274,0.0353,-0.301
PDIA5 C231 (UniProt Q14554),-0.324,-0.706,-0.665,-0.416
PDCD11 C557 (UniProt Q14690),-0.138,-0.179,-0.225,-0.246
PGM3 C348,0.00446,-0.0936,0.205,-0.137
PARP2 C98 (UniProt Q9UGN5),-0.252,0.264,-0.0913,0.246
PAIP1 C358 (UniProt Q9H074),-0.0385,-0.159,-0.409,-0.0762
PDS5A C430 (UniProt Q29RF7),0.158,-0.39,-0.00281,-0.369
PCNA C81 (UniProt P12004),-0.0587,-0.195,-0.289,-0.201
PAX6 C52,0.494,0.0873,0.359,0.268
PAG1 C355 (UniProt Q9NWQ8),0.182,-0.0575,-0.227,0.0997
PCF11 C1518 (UniProt O94913),-0.0986,0.0284,-0.38,0.0755
PEPD C158 (UniProt P12955),-0.246,0.224,-0.0912,0.455
PCYT1A C5 (UniProt P49585),-0.341,-0.159,-0.206,0.277
PDHB C263 (UniProt P11177),-0.255,-0.239,-0.0764,-0.198
PEA15 C27 (UniProt Q15121),-0.123,-0.0954,0.0255,-0.23
PEX1 C1185 (UniProt O43933),-0.229,0.0464,-0.214,0.0491
OXSR1 C53 (UniProt O95747),0.00155,-0.13,-0.103,-0.207
PEX19 C226 (UniProt P40855),0.0625,0.0755,0.0905,-0.0198
PCID2 C152 (UniProt Q5JVF3),0.0104,0.0714,-0.104,0.0215
OXNAD1 C69 (UniProt Q96HP4),-0.237,-0.0593,-0.318,-0.0755

Target,log2 mean competition ratio ([1]; 50 µM),log2 mean competition ratio ([1]; 200 µM),log2 mean competition ratio ([2]; 50 µM),log2 mean competition ratio ([2]; 200 µM)
PCK2 C306 (UniProt Q16822),0.443,0.26,0.676,0.292
PDLIM5 C213 (UniProt Q96HC4),-0.601,0.0645,0.258,0.231
PDLIM7 C388 (UniProt Q9NR12),-0.19,-0.294,0.253,-0.175
PAXBP1 C831 (UniProt Q9Y5B6),0.103,-0.129,-0.187,-0.157
PHF12 C613 (UniProt Q96QT6),0.212,-0.058,0.158,-0.0147
PGM3 C249,0.264,0.137,-0.297,0.126
PHF10 C57 (UniProt Q8WUB8),0.341,0.197,0.684,-0.184
PFN2 C84 (UniProt P35080),-0.00132,-0.277,0.0668,-0.0923
PDCD4 C350 (UniProt Q53EL6),0.158,-0.417,0.272,-0.564
PCM1 C876 (UniProt Q15154),0.0113,0.137,-0.0288,0.242
PAK2 C390 (UniProt Q13177),-0.143,-0.103,-0.0354,-0.223
PARG C943 (UniProt Q86W56),-0.193,-0.0495,-0.165,-0.0515
PHC2 C809 (UniProt Q8IXK0),-0.193,-0.287,-0.0384,-0.341
PALB2 C469 (UniProt Q86YC2),0.0348,0.244,-0.115,0.342
PCBP1 C109 (UniProt Q15365),-0.0599,-0.162,-0.0539,-0.0547
PBX1 C220,-0.211,0.197,-0.411,0.18
PDE4DIP C617,-0.396,0.175,-0.452,0.227
PARP9 C728 (UniProt Q8IXQ6),-0.213,-0.184,-0.00544,-0.00466
PARN C169 (UniProt O95453),0.00134,-0.0465,-0.114,0.00905
OXCT1 C235 (UniProt P55809),0.0472,-0.0345,0.218,-0.0485
PARP2 C474 (UniProt Q9UGN5),0.187,-0.116,0.264,0.0697
PFKL C708 (UniProt P17858),0.123,0.227,0.0578,0.268
PCM1 C896 (UniProt Q15154),-0.288,0.0625,0.287,0.66

# 5 entries picked at random from the list so far, as already listed:
Target,log2 mean competition ratio ([1]; 50 µM),log2 mean competition ratio ([1]; 200 µM),log2 mean competition ratio ([2]; 50 µM),log2 mean competition ratio ([2]; 200 µM)
PGM3 C249,0.264,0.137,-0.297,0.126
PCM1 C876 (UniProt Q15154),0.0113,0.137,-0.0288,0.242
PDCD4 C350 (UniProt Q53EL6),0.158,-0.417,0.272,-0.564
PARG C943 (UniProt Q86W56),-0.193,-0.0495,-0.165,-0.0515
OXCT1 C235 (UniProt P55809),0.0472,-0.0345,0.218,-0.0485
